Assay results taken from patent publication US20230018989A1, “INHIBITING THE RNA […] METTL3 OR ITS INTERACTION WITH EIF3H TO […] ONCOGENE TRANSLATION AND TUMORIGENESIS” (Children's Medical Center Corporation, priority 2019, published 2023).
No constants are given. Whether binding was seen depends on the method and setting. Binding seen in cells or lysates may run through a third protein. Some results given as binding are weak or reduced against the parent protein; the word gives no strength.

The chains behind the UniProt entries cited, without tags or fusion partners. Where a name states a change or a piece, a line headed by the entry shows the natural chain unless it says otherwise.
UniProt O15372: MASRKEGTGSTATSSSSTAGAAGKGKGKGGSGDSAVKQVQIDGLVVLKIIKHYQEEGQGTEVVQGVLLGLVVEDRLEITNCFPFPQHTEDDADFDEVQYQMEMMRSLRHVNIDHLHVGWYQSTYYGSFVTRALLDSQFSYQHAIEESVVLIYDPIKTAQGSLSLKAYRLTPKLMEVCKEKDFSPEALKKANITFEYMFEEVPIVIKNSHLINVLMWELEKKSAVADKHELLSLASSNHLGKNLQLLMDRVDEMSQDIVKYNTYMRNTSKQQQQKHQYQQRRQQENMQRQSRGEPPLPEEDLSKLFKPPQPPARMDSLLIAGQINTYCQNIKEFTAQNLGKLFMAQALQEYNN
UniProt Q86U44: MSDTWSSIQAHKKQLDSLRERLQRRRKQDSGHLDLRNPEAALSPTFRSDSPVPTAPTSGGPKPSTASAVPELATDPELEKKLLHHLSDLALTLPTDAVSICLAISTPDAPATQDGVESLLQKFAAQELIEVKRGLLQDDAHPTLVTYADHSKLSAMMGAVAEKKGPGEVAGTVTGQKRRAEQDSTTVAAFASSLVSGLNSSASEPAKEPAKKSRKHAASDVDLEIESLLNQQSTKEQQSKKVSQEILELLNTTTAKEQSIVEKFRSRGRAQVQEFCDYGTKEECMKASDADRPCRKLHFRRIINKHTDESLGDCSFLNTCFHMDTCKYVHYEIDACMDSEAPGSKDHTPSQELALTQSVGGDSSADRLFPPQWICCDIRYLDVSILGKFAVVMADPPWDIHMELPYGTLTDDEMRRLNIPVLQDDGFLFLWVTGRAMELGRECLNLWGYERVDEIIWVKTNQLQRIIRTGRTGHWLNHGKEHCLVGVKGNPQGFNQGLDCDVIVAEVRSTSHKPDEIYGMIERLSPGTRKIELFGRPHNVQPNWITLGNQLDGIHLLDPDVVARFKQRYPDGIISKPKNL

Assays:
[1] = biological target: GST-eIF3h (N-terminal GST-fused human eIF3h, full length) (human) (UniProt O15372); assay: GST pull-down (refers back to FIG. 5E)
[2] = biological target: GST-eIF3h (N-terminal GST-fused human eIF3h, full length) (human) (UniProt O15372); assay: Far-Western and GST pull-down (FIG. 5 legend title)
[3] = biological target: GST-eIF3h (N-terminal GST-fused human eIF3h, full length) (human) (UniProt O15372); assay: in vitro GST pull-down with purified recombinant proteins, Western blot
[4] = biological target: GST-eIF3h (29-222) (human) (UniProt O15372); assay: GST pull-down of eIF3h deletion mutants; co-purified His-METTL3 shown by Western blot

“recombinant His-tagged human METTL3 (1-200) (from UniProt Q86U44 1-200)” was tested, and the binding [1] was “binds”, the binding [2] was “binds” and the binding [3] was “binds”.

For “recombinant His-tagged human METTL3 (full-length) (from UniProt Q86U44 1-580) (enzyme)”, the binding [4] was “binds”.
